Source: PubChem BioAssay AID624405 (Broad Institute, 2012)
About 250 (13%) of roughly 1,900 compounds were called active. Another 4% or so got no clear call; they are omitted.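 How the source made its calls: active means fitted curve reaches 40% rescue activity at or below the top valid dose, in every test run; inconclusive means test runs disagree, some active and some inactive; inactive means every run misses the threshold or moves the wrong way.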 This is a selection; strong and weak results do not stand in their true shares. Measured potencies and affinities stand elsewhere.

Test: suppressors of statin myotoxicity in myotubes, dose response, cell-based, C2C12 myotubes, ATP luminescence, cherry pick (AID 624405);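 further: myotubes are challenged with simvastatin at 10 µM to lower ATP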
Details: C2C12 myotubes + simvastatin, 48 h, scaled: DMSO wells 0, geranylgeraniol wells 100; at 19.5 µM (top of the series) unless noted
In the case of `C[C@H](CO)N1C[C@H](C)[C@H](CN(C)S(=O)(=O)c2cccs2)OCCCC[C@H](C)Oc2ccc(NC(=O)Nc3ccc(F)cc3)cc2C1=O`, the rescue activity (ATP increase) is reported as inactive: -10.5%. With `C[C@@H]1CN([C@H](C)CO)C(=O)c2cccc(NS(=O)(=O)c3cccs3)c2O[C@@H]1CN(C)Cc1ccc(Oc2ccccc2)cc1` the rescue activity (ATP increase) was inactive: 37.4%. In the case of `C[C@@H]1CN([C@H](C)CO)C(=O)Cc2cc(NC(=O)Cc3cn(C)c4ccccc34)ccc2O[C@@H]1CN(C)Cc1ccc2c(c1)OCO2`, the rescue activity (ATP increase) is reported as inactive: 23%. In the case of `CN(C)CCN(C(=O)c1ccc2ccccc2c1)c1nc2c(F)cccc2s1`, the rescue activity (ATP increase) is reported as inactive: -26.6%. With `Cc1ccc(CC(=O)c2ccc(Cl)cc2)cc1` the rescue activity (ATP increase) was inactive: -1.44%. For `C[C@H](CO)N1C[C@H](C)[C@@H](CN(C)Cc2ccc(-c3ccccc3)cc2)Oc2ccc(NC(=O)c3ccncc3)cc2CC1=O`, the rescue activity (ATP increase) was inactive: 18.2%. For `CCc1nnc(NC(=O)CSc2nnc(-c3ccc(NS(=O)(=O)c4ccccc4)cc3)o2)s1`, the rescue activity (ATP increase) was inactive: -82.1%. For `O=C(CN1CCOCC1)N1CCN(c2nnc(-c3ccccc3)c3ccccc23)CC1`, the rescue activity (ATP increase) was inactive: 11.1%. For `Cc1noc(C)c1NC(=O)Nc1ccc2c(c1)C(=O)N([C@@H](C)CO)C[C@@H](C)[C@@H](CN(C)S(=O)(=O)c1c(C)noc1C)OCCCC[C@@H](C)O2`, the rescue activity (ATP increase) was inactive: 28.3%. With `O=C(NCCCNCCCNC(=O)c1ccccn1)c1ccccn1` the rescue activity (ATP increase) was inactive: 0.565%. For `C[C@@H]1CN([C@@H](C)CO)C(=O)c2cc(NS(=O)(=O)c3ccc(F)cc3)ccc2O[C@H]1CN(C)Cc1ccc(-c2ccccc2)cc1`, the rescue activity (ATP increase) was inactive: 7.63% [at 21 µM]. With `C[C@@H]1CN([C@H](C)CO)C(=O)c2cc(NS(C)(=O)=O)ccc2O[C@@H](C)CCCCO[C@@H]1CN(C)S(=O)(=O)c1ccc(Cl)cc1` the rescue activity (ATP increase) was inactive: 15.7%. With `Cc1nn(C)cc1CNC(=O)Nc1cccc(Cl)c1` the rescue activity (ATP increase) was inactive: -9.74%. For `O=C(CC1C(=O)OCN1C(=O)OCc1ccccc1)OCC(=O)c1ccccc1` (stereo not drawn), the rescue activity (ATP increase) was inactive: -14.1%. For `C[C@@H]1CCCCO[C@H](CN(C)C(=O)Nc2cccc3ccccc23)[C@H](C)CN([C@@H](C)CO)C(=O)c2cc(N(C)C)ccc2O1`, the rescue activity (ATP increase) was inactive: -13.6%. For `C[C@H](CO)N1C[C@H](C)[C@H](CN(C)C(=O)Nc2cccc3ccccc23)Oc2ccc(NC(=O)Nc3ccc(C(F)(F)F)cc3)cc2CC1=O`, the rescue activity (ATP increase) was inactive: 27%. In the case of `COCCNC(=O)Nc1ccc2nc(-c3cccs3)c(-c3cccs3)nc2c1`, the rescue activity (ATP increase) is reported as inactive: -64.5%. In the case of `C[C@H](CO)NC(=O)[C@@H]1C[C@H]1[C@@H](NP(=O)(c1ccccc1)c1ccccc1)c1ccccc1`, the rescue activity (ATP increase) is reported as inactive: 26.4%.
